Results from publication PMC5225316.
No constants are given. Whether binding was seen depends on the method and setting. Some binding calls cover weakened binding; strength is not graded here.

Protein sequences, listed by entry. Tags and fused reporters are not part of them. Lines headed by an entry give the natural chain unless they say otherwise; changes in a name come on top. Chains listed by the source or under a name are the forms on record and can include a tag or linker.
His6-tagged human PML protein (isoform III) (P29590-9, form named): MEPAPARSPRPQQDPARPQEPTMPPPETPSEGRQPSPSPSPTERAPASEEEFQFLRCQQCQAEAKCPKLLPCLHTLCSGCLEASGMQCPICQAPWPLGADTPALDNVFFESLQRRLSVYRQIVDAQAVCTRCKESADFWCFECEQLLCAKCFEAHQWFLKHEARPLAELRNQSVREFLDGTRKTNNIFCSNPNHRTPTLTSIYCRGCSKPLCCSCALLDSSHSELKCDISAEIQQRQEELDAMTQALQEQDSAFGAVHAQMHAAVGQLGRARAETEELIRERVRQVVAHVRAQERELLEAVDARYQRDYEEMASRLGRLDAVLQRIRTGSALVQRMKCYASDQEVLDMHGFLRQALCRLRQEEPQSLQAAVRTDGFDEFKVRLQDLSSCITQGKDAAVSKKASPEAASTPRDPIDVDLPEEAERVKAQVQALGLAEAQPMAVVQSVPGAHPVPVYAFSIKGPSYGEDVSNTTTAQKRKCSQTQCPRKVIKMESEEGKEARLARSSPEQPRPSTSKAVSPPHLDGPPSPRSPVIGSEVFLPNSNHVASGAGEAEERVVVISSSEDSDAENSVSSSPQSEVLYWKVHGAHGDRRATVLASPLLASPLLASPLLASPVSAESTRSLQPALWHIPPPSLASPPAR

Target: His6-tagged human PML protein (isoform III) (human) (UniProt P29590)
Experiment: non-reducing SDS-PAGE and immunoblot

“His6-tagged human PML protein (isoform III) (from UniProt P29590-9 1-641)” was tested. Which binding did it give?
Its binding is “binds”.
